Data source: PubChem BioAssay AID1259327 (Drosophila RNAi Screening Center, 2017)
Shown is one part, drawn at random, of about 3,100 reagents tested. 378 of all reagents (12%) were called active. 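Hits include both directions; z-score sign shows ATP rise or fall; raw luminescence values are not plate-normalised.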 The record does not give: the amount of reagent.

Test: 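Knock-downs altering cellular ATP with no metal added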
Cells: Drosophila S2R+ cells
Reagents: long dsRNA against Drosophila genes
Duration: 5 days (water added on day 4, read one day later)
Treatment: water added as vehicle, no metal, one day before read-out
Measured: 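Luciferase ATP signal per well, normalised to plate mean, duplicate average converted to z-score across plates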
Reading the numbers: ATP z-score: higher = more total ATP than typical wells; ATP luminescence: higher = more total ATP
Active means: 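a hit is any knock-down whose absolute ATP z-score is greater than 1.5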
Meaning of the calls: active = hit: ATP up or down; inactive = no clear ATP change

Knock-down of Cad87A (Cadherin 87A) [DRSC16161] gave: ATP z-score, duplicate mean 0.88; ATP luminescence, replicate 1 (RLU) = 8.10e5; ATP luminescence, replicate 2 (RLU) = 7.83e5; inactive.
Silencing of Cad87A (Cadherin 87A) [DRSC29158] came out at: ATP z-score, duplicate mean -0.323; ATP luminescence, replicate 1 (RLU) = 8.45e5; ATP luminescence, replicate 2 (RLU) = 7.29e5; inactive.
Silencing of CG32053 [DRSC10683] came out at: ATP z-score, duplicate mean -2.48; ATP luminescence, replicate 1 (RLU) = 4.58e5; ATP luminescence, replicate 2 (RLU) = 4.74e5; active.
With knock-down of Shab (Shaker cognate b) [DRSC08013] the results were ATP z-score, duplicate mean -0.423; ATP luminescence, replicate 1 (RLU) = 6.68e5; ATP luminescence, replicate 2 (RLU) = 7.27e5; inactive.
Knock-down of Shab (Shaker cognate b) [DRSC08699] gave: ATP z-score, duplicate mean 0.213; ATP luminescence, replicate 1 (RLU) = 7.09e5; ATP luminescence, replicate 2 (RLU) = 8.00e5; inactive.
Against Nmdar2 (NMDA receptor 2) [DRSC18183], the values are ATP z-score, duplicate mean -0.706; ATP luminescence, replicate 1 (RLU) = 6.28e5; ATP luminescence, replicate 2 (RLU) = 7.06e5; inactive.
For Nmdar2 (NMDA receptor 2) [DRSC18569], the values are ATP z-score, duplicate mean 0.0795; ATP luminescence, replicate 1 (RLU) = 4.75e5; ATP luminescence, replicate 2 (RLU) = 6.92e5; inactive.
PGRP-LF (Peptidoglycan recognition protein LF) [DRSC28930] showed ATP z-score, duplicate mean -0.166; ATP luminescence, replicate 1 (RLU) = 8.63e5; ATP luminescence, replicate 2 (RLU) = 7.48e5; inactive.
Silencing of CG7627 [DRSC03065] gave: ATP z-score, duplicate mean 1.82; ATP luminescence, replicate 1 (RLU) = 5.28e5; ATP luminescence, replicate 2 (RLU) = 6.90e5; active.
After knock-down of kumpel (kin of rumpel) [DRSC14883], the record shows ATP z-score, duplicate mean 0.833; ATP luminescence, replicate 1 (RLU) = 3.06e5; ATP luminescence, replicate 2 (RLU) = 9.29e5; inactive.
With knock-down of kumpel (kin of rumpel) [DRSC16459] the results were ATP z-score, duplicate mean 0.485; ATP luminescence, replicate 1 (RLU) = 3.03e5; ATP luminescence, replicate 2 (RLU) = 8.61e5; inactive.
After knock-down of kumpel (kin of rumpel) [DRSC16460], the record shows ATP z-score, duplicate mean -0.353; ATP luminescence, replicate 1 (RLU) = 2.89e5; ATP luminescence, replicate 2 (RLU) = 7.10e5; inactive.
With knock-down of kumpel (kin of rumpel) [DRSC16461] the results were ATP z-score, duplicate mean 0.291; ATP luminescence, replicate 1 (RLU) = 3.22e5; ATP luminescence, replicate 2 (RLU) = 7.69e5; inactive.
After knock-down of kumpel (kin of rumpel) [DRSC16462], the record shows ATP z-score, duplicate mean 0.684; ATP luminescence, replicate 1 (RLU) = 3.45e5; ATP luminescence, replicate 2 (RLU) = 7.99e5; inactive.
Against kumpel (kin of rumpel) [DRSC16463], the values are ATP z-score, duplicate mean -0.275; ATP luminescence, replicate 1 (RLU) = 2.64e5; ATP luminescence, replicate 2 (RLU) = 7.89e5; inactive.
kumpel (kin of rumpel) [DRSC25593] gave ATP z-score, duplicate mean -0.424; ATP luminescence, replicate 1 (RLU) = 7.93e5; ATP luminescence, replicate 2 (RLU) = 8.03e5; inactive.
Against kumpel (kin of rumpel) [DRSC27664], the entry reads ATP z-score, duplicate mean -1.26; ATP luminescence, replicate 1 (RLU) = 8.84e5; ATP luminescence, replicate 2 (RLU) = 8.70e5; inactive.
kumpel (kin of rumpel) [DRSC39430] gave ATP z-score, duplicate mean -0.829; ATP luminescence, replicate 1 (RLU) = 4.35e5; ATP luminescence, replicate 2 (RLU) = 3.63e5; inactive.
After knock-down of kumpel (kin of rumpel) [DRSC39876], the record shows ATP z-score, duplicate mean -2.42; ATP luminescence, replicate 1 (RLU) = 4.14e5; ATP luminescence, replicate 2 (RLU) = 3.36e5; active.
Against CG18635 [DRSC06780], the values are ATP z-score, duplicate mean 0.0963; ATP luminescence, replicate 1 (RLU) = 7.45e5; ATP luminescence, replicate 2 (RLU) = 7.28e5; inactive.
Depletion of CG18635 [DRSC25971] resulted in: ATP z-score, duplicate mean 0.684; ATP luminescence, replicate 1 (RLU) = 8.07e5; ATP luminescence, replicate 2 (RLU) = 1.06e6; inactive.
Depletion of CG42542 [DRSC15549] resulted in: ATP z-score, duplicate mean -0.914; ATP luminescence, replicate 1 (RLU) = 6.22e5; ATP luminescence, replicate 2 (RLU) = 6.01e5; inactive.
After knock-down of CG42542 [DRSC26676] the results were ATP z-score, duplicate mean -2.2; ATP luminescence, replicate 1 (RLU) = 9.69e5; ATP luminescence, replicate 2 (RLU) = 9.69e5; active.
Against LRP1 (LDL receptor protein 1) [DRSC07238] the deposit lists ATP z-score, duplicate mean -0.709; ATP luminescence, replicate 1 (RLU) = 5.69e5; ATP luminescence, replicate 2 (RLU) = 5.41e5; inactive.

In a second layout: entries from further up
gene knocked down	amplicon	ATP z-score, duplicate mean	ATP luminescence, replicate 1 (RLU)	ATP luminescence, replicate 2 (RLU)	Call
CG42542	DRSC15549	-0.914	6.22e5	6.01e5	inactive
CG42542	DRSC26676	-2.2	9.69e5	9.69e5	active
